{"source": "patent US10264790B2", "about": "“Use of certain herbicide combinations based on iodosulfuron in teff plants” (BAYER CROPSCIENCE AKTIENGESELLSCHAFT, priority 2016, dated 2019)", "origin": "cited, not measured here", "tested_on": "teff (Eragrostis tef)", "settings": "post-emergence applications; 8 week after treatment; field studies Kansas", "note": "Some results were stated once for a whole list of compounds, not compound by compound.", "data": [{"smiles": "N#Cc1cc(Br)c(O)c(Br)c1", "note": "[bromoxynil]", "values": [{"measurement": "injury on teff", "value": "less than 5%"}]}]}
